In paper PMC7271526:

Molecular target: T1, CiMYB42 (UniProt V4TPP5)
T1 sequence (looked up, limits assumed): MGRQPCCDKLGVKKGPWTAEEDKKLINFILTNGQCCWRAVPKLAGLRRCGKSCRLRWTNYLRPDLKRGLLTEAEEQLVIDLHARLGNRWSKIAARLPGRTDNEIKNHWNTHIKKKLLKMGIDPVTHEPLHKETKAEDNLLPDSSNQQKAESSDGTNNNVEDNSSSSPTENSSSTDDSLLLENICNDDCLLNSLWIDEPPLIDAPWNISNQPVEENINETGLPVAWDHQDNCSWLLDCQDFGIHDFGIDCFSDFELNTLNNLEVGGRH
Experiment: EMSA
Conditions: Chemiluminescent EMSA Kit (Beyotime), polyacrylamide gel; pH and temperature not stated; recombinant protein; label: biotin

Sequence	binding result
ACTAGCGTCAACAAATTGTTGAATTTAAA (double strand) [OSC-2]	binds
GTAATTGTAGAATAACTACGCTATGAAATA (double strand) [OSC-3]	no binding
TGCTATAGTATACCAAACACGAGATAATA (double strand) [OSC-1]	no binding

For at least one entry, the source does not settle the construct or the ends of the probe. No signal at the amounts used counts as a negative. Tags and fusion partners may be left off the protein sequences shown.
